Experimental findings from PubChem BioAssay AID2685 (National Center for Advancing Translational Sciences (NCATS), 2010) are described below.

The list shows a part of the results. Further columns of the screen follow, without active or inactive calls. Most of these compounds were active or inconclusive in the main read-out, so they are no random draw. The note in brackets gives the kind of curve behind each potency; many fits are weak.

Usually AC50 stands for the concentration at which the activity in the assay is half-maximal. Read a low AC50 as activity at low concentration.

A short description of this assay: qHTS Assay for Lipid Storage Modulators in Drosophila S3 Cells.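 As to cell number change: cells counted by Cell Tracker Red CMTPX staining in the red channel.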 As to conditions: BODIPY lipid droplet fluorescence, 18-24 h; for cell number change: measured here: cell count max response, cells fed with added oleic acid. In outline:
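Drosophila S3 cells loaded with oleic acid (400 uM, as added) and compounds at several concentrations; lipid droplets imaged by 488-nm laser-scanning cytometry, 500–530 nm intensity and object ratio to cell channel. Percent activity normalized to 20 uM Triacsin C.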

Setting [1] is: measured here: lipid fluorescence (Fed channel) AC50, cells fed with added oleic acid.
Where [2] appears, read: measured here: cell number channel AC50, cells fed with added oleic acid.

As to `COC(=O)c1ccc(OC)c(-c2c(OC)cc(OC)cc2OC)c1`, the cell number change is 25.3%. Besides, under setting [1], the AC50 is 4.61 µM [rising, full curve, poor fit].
Regarding `O=C(NCC(=O)N1CCCCC1)c1ccc(Br)o1`, the cell number change was found to be 9.19%. In addition, under setting [1], the AC50 was 0.13 µM [falling, full curve, poor fit].
As to `Cc1c(CCC(=O)N2CCC[C@H]2C(=O)O)c(=O)oc2c(C)c3oc4c(c3cc12)CCCC4`, the cell number change is 30.4%. The AC50 under setting [2] is 29.1 µM [rising, single point].
For the molecule `CCOC(=O)[C@H]1[C@H]2COc3ccc(C)cc3[C@@H]2N2C(=O)CN(CC3CCCO3)C(=O)[C@@]12C` (stereo partly drawn), the cell number change is -21.9%. In addition, the AC50 under setting [1] was 0.103 µM [falling, full curve, poor fit].
As for `O=C(CC1SC2=NCCN2C1=O)Nc1ccccc1` (stereo not drawn), the cell number change amounted to 42%. Moreover, under setting [2], the AC50 is 23.1 µM [rising, single point].
For `CCc1cc(=O)oc2cc(OCC(=O)N3CCC(C(N)=O)CC3)ccc12`, the cell number change worked out at 4.21%. Besides, under setting [1], the AC50 was 2.31 µM [rising, partial curve].
In the case of `COc1ccc(-c2ccc(=O)n(CC(=O)NCc3ccco3)n2)cc1`, the cell number change was 12.4%. The AC50 under setting [1] is 18.4 µM [rising, partial curve].
For the molecule `CCN1C(=O)C2C(c3cccc(F)c3)NC(C)(C(=O)OC)C2C1=O` (stereo not drawn), the cell number change came out at 0.166%. The AC50 under setting [1] is 29.1 µM [falling, partial curve].
In the case of `COCCCn1c(C(=O)NCCC2=CCCCC2)cc2c(=O)n3ccccc3nc21`, the cell number change is 8.02%. Also, the AC50 under setting [1] was 5.8 µM [falling, single point].
Take `Cc1cnc(C)c(N2CCC(C(=O)NCc3ccco3)CC2)n1`: the cell number change is -7.48%. Besides, the AC50 under setting [2] was 7.31 µM [rising, single point].
Take `CCn1c(=O)c2sccc2n(Cc2cc(C(=O)OC)ccc2OC)c1=O`: the cell number change worked out at 6.42%.
With `O=C(c1ccc(OC2CCN(Cc3cccc(F)c3)CC2)cc1)N1CCCCC1`, the cell number change is -1.76%. In addition, the AC50 under setting [1] was 16.4 µM [rising, partial curve].
Turning to `O=C(C1CCC(CNS(=O)(=O)c2cccs2)CC1)N1CCN(c2ccc(F)cc2)CC1` (stereo not drawn), the cell number change is -44.4%. For the same molecule, the AC50 under setting [2] was 5.8 µM [falling, partial curve, poor fit].
Consider `Cc1occc1-c1nnc(SCC(=O)Nc2ccc3c(c2)OCO3)n1CC1CCCO1` (stereo not drawn), for which the cell number change was -16.7%. Also, the AC50 under setting [2] was 0.651 µM [falling, full curve, poor fit].
On to `COC(=O)c1cc(C(=O)Nc2ccc(S(=O)(=O)NC(C)(C)C)cc2)cc([N+](=O)[O-])c1`, for which the cell number change was -3.1%. The AC50 under setting [1] is 0.291 µM [falling, full curve, poor fit].
For `COc1ccc(C(=O)NC(=S)Nc2nnn(C)n2)cc1`, the cell number change was -9.79%. For the same molecule, the AC50 under setting [1] is 0.0651 µM [falling, full curve, poor fit].
In the case of `O=C(Cc1ccc([N+](=O)[O-])cc1)NNC(=O)c1ccc2c(c1)OCO2`, the cell number change is 14.7%. Under setting [1], the AC50 is 0.58 µM [rising, single point].
As for `CCC1(C)SC(NC(C)=O)=NN1C(C)=O` (stereo not drawn), the cell number change was -7.85%.
As for `CCN(CC(=O)Nc1c(F)cccc1F)C(=O)c1cnccn1`, the cell number change was 7.14%. Under setting [1], the AC50 was 2.59 µM [rising, partial curve].
Consider `COC(=O)C1=COC(C)C2CN3CCc4c([nH]c5cc(OC)c(OC)cc45)C3CC12` (stereo not drawn), for which the cell number change is -10.8%. In addition, under setting [1], the concentration at half-maximal activity (AC50) is 23.1 µM [falling, single point].
For `CCCCn1c(N)c(Sc2ccc(Cl)cc2)c(=O)[nH]c1=O`, the cell number change turned out to be 9.62%. Further, the AC50 under setting [1] was 6.51 µM [falling, single point].
In the case of `Cc1cc(C(=O)OCC(=O)Nc2cccc(S(=O)(=O)N3CCOCC3)c2)c(C)o1`, the cell number change came to 16.6%. Also, under setting [1], the AC50 was 2.06 µM [rising, partial curve].
As for `CN1CCN(CC#CCC2(O)c3ccccc3-c3ccccc32)CC1`, the cell number change turned out to be 27.7%. Besides, under setting [1], the AC50 is 0.651 µM [rising, full curve, poor fit].
With `COc1ccc(N(Cc2cc3cccc(C)c3[nH]c2=O)S(=O)(=O)c2ccc(OC)cc2)cc1`, the cell number change is -1.53%.
In the case of `Cc1ccc2nc(Cl)c(/C=N/NC(=O)c3ccccc3O)cc2c1`, the cell number change is 17.7%. For the same molecule, the AC50 under setting [1] was 23.1 µM [rising, single point].
Turning to `O=C(Nc1c2c(nn1-c1ccc(F)cc1)CS(=O)C2)C12CC3CC(CC(C3)C1)C2` (stereo not drawn), the cell number change worked out at 30.2%. Also, the AC50 under setting [2] was 20.6 µM [rising, single point].
Turning to `Cn1c(N)c(C(=O)CN2CCc3ccccc3C2)c(=O)n(C)c1=O`, the cell number change is 14.8%.
As to `COCCn1c(SCC(=O)NC2CCCC2)nc2c(c1=O)SCC2`, the cell number change turned out to be 16.1%. For the same molecule, the AC50 under setting [1] was 6.51 µM [rising, single point].
Consider `CC1c2cccn2CCN1S(=O)(=O)c1ccc(F)cc1` (stereo not drawn), for which the cell number change was -16.9%. Further, the AC50 under setting [1] was 16.4 µM [falling, single point].
For the molecule `Cc1cc(/C=N/NC(N)=S)c(C)n1-c1ccc(Cl)c(Cl)c1`, the cell number change is -33.4%. Also, the AC50 under setting [2] is 29.1 µM [falling, single point]. Also, the AC50 under setting [1] was 29.1 µM [falling, single point].
On to `O=C(Nc1nnc(-c2ccc(F)cc2)s1)c1ccco1`, for which the cell number change was -4.76%.
Still for that read-out and setting: next, `COc1c(C(C)C)oc2cc3oc(=O)ccc3cc12`: -6.15%.
Consider `O=C(N/N=C\c1cccc(OC(=O)c2ccco2)c1)c1ccc2c(c1)OCO2`, for which, under setting [1], the AC50 is 1.16 µM [rising, full curve].
As for `Cc1c(C(=O)Nc2cccc([N+](=O)[O-])c2)cnn1-c1ccccc1`, the cell number change was -8.78%.
Regarding `COc1ccccc1NC(=O)COC(=O)c1c[nH]c(=O)[nH]c1=O`, the cell number change is -12.1%. The AC50 under setting [1] is 32.6 µM [falling, single point].
For the molecule `Cc1ccc(C2C3=C(CC(C)(C)CC3=O)N(CCN3CCOCC3)C3=C2C(=O)CC(C)(C)C3)cc1`, the cell number change worked out at 27.3%. For the same molecule, the AC50 under setting [1] is 16.4 µM [rising, partial curve].
Turning to `N#Cc1ccc(OCC(O)CS(=O)(=O)c2ccc(F)cc2)cc1` (stereo not drawn), the cell number change is -2.94%. Further, the AC50 under setting [2] was 0.058 µM [rising, full curve, poor fit].
`CC(C)(C)C1C/C(=C/c2ccccn2)C(=O)/C(=C/c2ccccn2)C1` (stereo not drawn): the cell number change is -51.5%. Besides, the AC50 under setting [2] is 23.1 µM [falling, single point]. Moreover, the AC50 under setting [1] is 18.4 µM [falling, single point].
As for `Clc1cccc(Cl)c1CON/C=N/c1ncnc2sccc12`, the AC50 is, setting by setting: under setting [2], 2.06 µM [rising, partial curve]; under setting [1], 1.64 µM [rising, partial curve].
`COc1ccc(OCC(=O)Nc2cccc(C(C)=O)c2)cc1`: the cell number change is 43.7%. Under setting [1], the AC50 is 32.6 µM [rising, partial curve, poor fit].
On to `O=C(NCc1ccccc1CN1CCCC1)c1cc2cc(Cl)ccc2o1`, for which the cell number change turned out to be 5.57%. For the same molecule, the AC50 under setting [1] was 0.651 µM [falling, single point].
Regarding `O=C(CCCOc1ccccc1)Nc1cccc(S(=O)(=O)N2CCCCC2)c1`, the cell number change worked out at 17%. Further, the AC50 under setting [1] was 4.61 µM [falling, partial curve].
With `CCCC(=O)N1CCN(c2ccc(NC(=S)NC(=O)c3cccc(C)c3)cc2)CC1`, the cell number change is -23.4%. The AC50 under setting [2] was 0.0058 µM [falling, full curve, poor fit]. The AC50 under setting [1] was 1.16 µM [falling, full curve].
`COc1ccc(CSc2nncn2C)cc1F`: the cell number change is -25.2%. Further, the AC50 under setting [2] is 0.013 µM [falling, full curve, poor fit]. Under setting [1], the AC50 was 0.0291 µM [falling, full curve, poor fit].
Regarding `O=C(C[C@H]1C(=O)N(CCc2ccccc2)C[C@@H]1Cc1ccccc1)Nc1ccccc1`, the cell number change is 8.08%.
For the molecule `COc1ccc(/C=C/C(=O)Nc2ccc3c(c2)OCCO3)cc1OC`, the cell number change was 84.4%. Also, under setting [2], the AC50 was 29.1 µM [rising, single point]. The AC50 under setting [1] is 0.326 µM [rising, full curve, poor fit].
For `CCN(CC)C(=O)NC(c1ccc(C)c(F)c1)C(Cl)(Cl)Cl` (stereo not drawn), the cell number change is -28.5%. In addition, under setting [1], the AC50 is 1.3 µM [rising, partial curve].
Consider `CSc1cc(C)c(OCC(=O)Nc2ccc(NC(C)=O)cc2)c(C)c1`, for which the cell number change worked out at 9.96%.
For `S=C1NC(c2cccs2)=CC(c2ccc(Br)cc2)N1` (stereo not drawn), the cell number change is 18.8%. In addition, the AC50 under setting [1] was 29.1 µM [rising, single point].
`O=C(CSc1nnc(Nc2ccccc2F)s1)Nc1cccc(S(=O)(=O)N2CCCCC2)c1`: the cell number change is -35.4%. Moreover, under setting [2], the AC50 was 32.6 µM [falling, single point]. Also, the AC50 under setting [1] is 18.4 µM [falling, partial curve].
Regarding `CCOc1ccc(S(=O)(=O)NCc2cccnc2)cc1NC(=O)c1ccccc1F`, the cell number change worked out at 98.7%. Besides, the AC50 under setting [2] was 29.1 µM [rising, single point].
As for `N/C(COc1ccccc1)=N\NS(=O)(=O)c1ccccc1`, the AC50 under setting [1] was 0.116 µM [falling, full curve, poor fit].
`COc1ccccc1-n1c(C)c(C(C)=O)c2cc(O)ccc21`: the cell number change was determined as 12%. Moreover, the AC50 under setting [2] was 0.103 µM [rising, full curve, poor fit]. In addition, the half-maximal activity concentration (AC50) under setting [1] is 6.51 µM [rising, single point].
On to `CCCCCC(=O)Nc1cccc(-c2nc3ncccc3o2)c1`, for which the cell number change amounted to 1.04%.
With `CSc1ccc(C(=O)C2CCCN(C(=O)CCn3cncn3)C2)cc1` (stereo not drawn), the cell number change stood at 0.99%. Further, under setting [2], the AC50 was 0.461 µM [rising, single point].
In the case of `CSCCC(NC(=O)COc1ccccc1)C(=O)N(C)Cc1cccc(F)c1` (stereo not drawn), the cell number change amounted to 36.4%. Further, the AC50 under setting [2] is 29.1 µM [rising, single point]. Also, the AC50 under setting [1] was 32.6 µM [rising, single point].
`CCc1ccc(NC(=S)N2CCCCCCC2)cc1`: the cell number change was -7.45%.
In the case of `Cc1noc(C)c1C(=O)N1CCc2ccccc21`, the cell number change was -2.84%. Also, the AC50 under setting [1] is 0.651 µM [falling, single point].
As for `O=C(NNc1c(Cl)cc(Cl)cc1Cl)C1CCC1`, the cell number change was 4.94%. Besides, the AC50 under setting [1] is 29.1 µM [rising, single point].
Take `COc1ccc(N2C(=O)NC3CC2(C)Oc2ccc(Cl)cc23)cc1OC` (stereo not drawn): the cell number change is -20%. In addition, the AC50 under setting [1] is 0.0058 µM [falling, full curve, poor fit].
As to `CN=C(NC1CCCCC1)c1ccc([N+](=O)[O-])cc1`, the cell number change came out at 3.41%. For the same molecule, the AC50 under setting [1] is 10.3 µM [rising, partial curve].
Turning to `CC(=O)Nc1ccc(NC(=S)Nc2ccc(F)cc2)cc1`, the cell number change turned out to be 40.2%.
